Where no end group is shown, it is not given here. [ ]: non-standard residue; d: D form. The star is where a group is joined. DOTA = O=C(O)CN1CCN(CC(=O)O)CCN(CC(=O)*)CCN(CC(=O)O)CC1; 1Nal = N[C@@H](Cc1cccc2ccccc12)C(=O)O; NMeNle = CCCC[C@H](NC)C(=O)O
test: general procedure: Fmoc solid-phase peptide synthesis; 2-chlorotritylchloride (2-CTC) resin, capacity 1.6 mmol/g (Iris Biotech), loaded with 30% of total capacity; HATU/HOAt/DIPEA in DMF, 5-fold excess of Fmoc amino acids; details: whole synthesis

In order of rising “final HPLC purity” value:
1. {DOTA}-[dE]PYGW-OH (C-terminus assumed; SMILES O=C(O)CC[C@@H](NC(=O)CN1CCN(CC(=O)O)CCN(CC(=O)O)CCN(CC(=O)O)CC1)C(=O)N1CCC[C@H]1C(=O)N[C@@H](Cc1ccc(O)cc1)C(=O)NCC(=O)N[C@@H](Cc1c[nH]c2ccccc12)C(=O)O)  93%
2. {DOTA}-[dE]PYGW[NMeNle]D[1Nal]-OH (SMILES CCCC[C@@H](C(=O)N[C@@H](CC(=O)O)C(=O)N[C@@H](Cc1cccc2ccccc12)C(=O)O)N(C)C(=O)[C@H](Cc1c[nH]c2ccccc12)NC(=O)CNC(=O)[C@H](Cc1ccc(O)cc1)NC(=O)[C@@H]1CCCN1C(=O)[C@@H](CCC(=O)O)NC(=O)CN1CCN(CC(=O)O)CCN(CC(=O)O)CCN(CC(=O)O)CC1)  94%
3. {DOTA}-[dE]PYGW[NMeNle]-OH (C-terminus assumed; SMILES CCCC[C@@H](C(=O)O)N(C)C(=O)[C@H](Cc1c[nH]c2ccccc12)NC(=O)CNC(=O)[C@H](Cc1ccc(O)cc1)NC(=O)[C@@H]1CCCN1C(=O)[C@@H](CCC(=O)O)NC(=O)CN1CCN(CC(=O)O)CCN(CC(=O)O)CCN(CC(=O)O)CC1)  98%
4. {DOTA}-[dE]PYG  99%
5. {DOTA}-[dE]PYGW[NMeNle]D-OH (C-terminus assumed; SMILES CCCC[C@@H](C(=O)N[C@@H](CC(=O)O)C(=O)O)N(C)C(=O)[C@H](Cc1c[nH]c2ccccc12)NC(=O)CNC(=O)[C@H](Cc1ccc(O)cc1)NC(=O)[C@@H]1CCCN1C(=O)[C@@H](CCC(=O)O)NC(=O)CN1CCN(CC(=O)O)CCN(CC(=O)O)CCN(CC(=O)O)CC1)  99%

test: peptide made by a vendor (Fmoc solid-phase peptide synthesis; 2-chlorotritylchloride (2-CTC) resin, capacity 1.6 mmol/g (Iris Biotech), loaded with 30% of total capacity; HATU/HOAt/DIPEA in DMF, 5-fold excess of Fmoc amino acids); details: whole synthesis

With “{DOTA}-[dE]PYGW[NMeNle]D[1Nal]-NH2 (SMILES CCCC[C@@H](C(=O)N[C@@H](CC(=O)O)C(=O)N[C@@H](Cc1cccc2ccccc12)C(N)=O)N(C)C(=O)[C@H](Cc1c[nH]c2ccccc12)NC(=O)CNC(=O)[C@H](Cc1ccc(O)cc1)NC(=O)[C@@H]1CCCN1C(=O)[C@@H](CCC(=O)O)NC(=O)CN1CCN(CC(=O)O)CCN(CC(=O)O)CCN(CC(=O)O)CC1)” the “final HPLC purity” value was greater than 95%.

Reference: article PMC7583830 (Molecules, 2020)
